The campaign covered roughly 1,700 compounds. About 150 (8.8%) were called active. The inconclusive results got no clear call from the source; some entries with a clear call stand among them for comparison.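 The calls were made as follows: active = fluorescence change differing from the plate's solvent-only control wells at 99.7% confidence in both duplicates, whether higher or lower; inconclusive = differs from solvent controls in only one of two duplicates; inactive = the rest.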
Molecular target: Muscarinic acetylcholine receptor M4 (Rattus norvegicus) (UniProt P08485)
Assay: rat M4 muscarinic receptor activation – cell-based, agonist mode, counter-screen for M1 allosteric modulator project, confirmation (AID 1741)
Details: CHO M4/Gqi5 cells, Fluo-4 calcium fluorescence, at 10 µM, actives lie on both sides

Protein sequences, listed by entry. Tags and fused reporters are not part of them.
UniProt P08485, whole entry, looked up: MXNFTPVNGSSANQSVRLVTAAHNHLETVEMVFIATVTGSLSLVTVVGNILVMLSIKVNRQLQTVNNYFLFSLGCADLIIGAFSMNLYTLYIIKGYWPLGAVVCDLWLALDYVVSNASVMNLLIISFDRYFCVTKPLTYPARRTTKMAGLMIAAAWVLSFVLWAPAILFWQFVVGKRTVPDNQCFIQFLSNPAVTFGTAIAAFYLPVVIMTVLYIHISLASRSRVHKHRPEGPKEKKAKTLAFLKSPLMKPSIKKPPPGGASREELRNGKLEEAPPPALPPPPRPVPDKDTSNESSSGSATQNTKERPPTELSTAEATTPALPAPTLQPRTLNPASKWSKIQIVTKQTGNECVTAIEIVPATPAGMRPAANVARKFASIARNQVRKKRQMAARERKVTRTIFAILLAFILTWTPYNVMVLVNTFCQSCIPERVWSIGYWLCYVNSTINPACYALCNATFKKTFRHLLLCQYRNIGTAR

Compound	fluorescence change (max-min)
N#Cc1c(-c2ccc3c(c2)OCO3)csc1N	inactive: -29.4
COC(=O)c1cccc(C(=O)Nc2cnc3ccccc3c2)n1	inconclusive: -73.3
COc1cc(NC(=O)c2ccco2)c(OC)cc1NC(=O)CSc1nnc(-c2cccs2)n1C	inconclusive: -69.6
Cc1nn(C(=O)c2ccccc2)c2c1C(=O)CC(C)(C)C2	inconclusive: -51
CCN=C(NCC)SC1CC(=O)N(c2cccc(OCC)c2)C1=O (centres undefined)	inactive: -22.4
O=C(c1cc2ccccc2oc1=O)N(Cc1ccc2c(c1)OCO2)Cc1ccco1	inconclusive: -63.4
COc1ccc(NC(=O)C2CCCN(S(=O)(=O)c3cccc4cccnc34)C2)c(OC)c1 (centres undefined)	inconclusive: -127
CC(=O)N1CCN(C2=Nc3cccc4cccc2c34)CC1	active: 92.1
Nc1nnc(SCc2cccc(C(F)(F)F)c2)s1	inconclusive: -56.5
Cn1c(=O)c2c(nc(N3CCN(Cc4ccccc4)CC3)n2CCCc2ccccc2)n(C)c1=O	inactive: -9.54
Cc1nnc(SCCCn2c(N3CCN(c4ccccc4)CC3)nc3c2c(=O)[nH]c(=O)n3C)s1	inconclusive: -76.7
Cc1c(C(=O)NCCc2ccccc2)oc2ccc(S(=O)(=O)N3CCOCC3)cc12	inconclusive: -156
CCN(C(=O)c1cnc(N2CCN(c3ncccn3)CC2)c2ccccc12)c1cccc(Cl)c1	inconclusive: -37.2
CCCCOc1ccc(C(=O)Nc2ccncc2)cc1	inconclusive: -26.1
O=C(Nc1cccc(-c2nc3ncccc3o2)c1)c1cc2ccccc2o1	inconclusive: -87.8
COc1ccc(S(=O)(=O)N(Cc2cc3ccc(OC)cc3[nH]c2=O)CC2COCCO2)cc1 (centres undefined)	inconclusive: -105
CCOc1ccc(Nc2ncnc3c2cnn3-c2ccccc2)cc1	inconclusive: -132
O=C(c1oc2ccccc2c1CSCc1ccccc1)N1CCN(c2ncccn2)CC1	inconclusive: -94.2
CCOC(=O)N1CCN(C(=O)c2ccc3c(=O)n(Cc4ccccc4)c(=S)[nH]c3c2)CC1	inconclusive: -86.1
Cc1cc(OCc2nnc(SCC(=O)OC3CCCCC3)o2)ccc1Cl	inconclusive: -60.3
CC1CC(=O)c2cnc(Nc3cccc(C(F)(F)F)c3)nc2C1 (centres undefined)	inactive: 0.265
Cc1cccc2cc3c(NC(=O)C(C)C)nn(C)c3nc12	inactive: -51.7

Taken from above.
Value of O=C(c1oc2ccccc2c1CSCc1ccccc1)N1CCN(c2ncccn2)CC1 under fluorescence change (max-min): inconclusive: -94.2
Value of CCN(C(=O)c1cnc(N2CCN(c3ncccn3)CC2)c2ccccc12)c1cccc(Cl)c1 under fluorescence change (max-min): inconclusive: -37.2

(listing goes on)

Compound	fluorescence change (max-min)
Cc1c(C(=O)O)oc2ccc(S(=O)(=O)N3CC(C)CC(C)C3)cc12 (centres undefined)	inconclusive: -64.1
CCCCOc1ccc(S(=O)(=O)Nc2cccnc2)cc1	inconclusive: -72.1
O=c1c(O)c(-c2cccs2)oc2ccccc12	active: 622
Cc1ccnc(SCCn2c(N3CCN(c4ccccc4)CC3)nc3c2c(=O)[nH]c(=O)n3C)n1	inconclusive: -63.7
N=c1oc2c3c4c(cc2cc1C(=O)Nc1ccccc1)CCCN4CCC3	active: 2810
Cc1c(NC(=O)CSC2=C(C#N)C(c3ccccc3F)CC(=O)N2)c(=O)n(-c2ccccc2)n1C (centres undefined)	inconclusive: -59.7
CCOc1cc(C2C(C#N)=C(N)OC(C)=C2C(C)=O)cc(Br)c1O (centres undefined)	active: 170
Nc1nnc(N2CCc3ccccc32)s1	active: -71.9
COc1ccccc1N1CCN(C(=O)c2ccc(CS(=O)(=O)c3ccccc3OC)o2)CC1	inconclusive: -78.4
CCCCS(=O)(=O)Nc1ccc(Cc2ccncc2)cc1	inactive: -38.8
O=C(Nc1cccc2nsnc12)C1CC(=O)N(c2ccccc2)C1 (centres undefined)	inconclusive: -54.8
COc1ccc(CCNc2nc(C)nc3c2oc2ccccc23)cc1OC	inconclusive: -110
CCOC(=O)c1cc2n(c1N)-c1ccccc1C2=O	active: 2020
CN(C)c1ccc(/C=C/c2cc[n+]([O-])cc2)cc1	active: 895
COc1ccc(-n2c(NC(=O)c3ccco3)c(C#N)c3nc4ccccc4nc32)cc1	inactive: 30.6
O=C(CSc1nc(-c2ccco2)cc(C(F)(F)F)n1)Nc1ccc(C(=O)N2CCCCC2)cc1	inconclusive: -172
CC(=O)N1CCc2cc(S(=O)(=O)Nc3cccc(C(F)(F)F)c3)ccc21	inactive: -33.9
N#Cc1c(-c2cccs2)cc(-c2cccnc2)nc1N	inactive: -48.6
N#Cc1c(N)sc(=S)c2c1CCCCC2	inactive: -10.1
COc1cc(/C=c2\s/c(=C(/C#N)C(=O)N3CCCC3)n(-c3ccccc3)c2=O)ccc1O	inactive: 43.1
CN1CCN(c2nc(-c3cccs3)cc(C(F)(F)F)n2)CC1	inconclusive: -70.3
O=c1c2c3c(sc2nc2sc(CN4CCOCC4)cn12)CCCC3	inconclusive: -145

— PubChem BioAssay AID1741 (Vanderbilt High Throughput Screening Facility, 2009)
